Test results published in the supplement of paper PMC3741180, “A Novel High Throughput Biochemical Assay to Evaluate the HuR Protein-RNA Complex Formation” (PLoS ONE, 2013).
The other results are listed elsewhere or left out. This data set is noisy: repeats of one test often differ as much as different tests do.

Chains of the proteins cited; added tags and fusions are not shown.
UniProt Q15717, whole entry: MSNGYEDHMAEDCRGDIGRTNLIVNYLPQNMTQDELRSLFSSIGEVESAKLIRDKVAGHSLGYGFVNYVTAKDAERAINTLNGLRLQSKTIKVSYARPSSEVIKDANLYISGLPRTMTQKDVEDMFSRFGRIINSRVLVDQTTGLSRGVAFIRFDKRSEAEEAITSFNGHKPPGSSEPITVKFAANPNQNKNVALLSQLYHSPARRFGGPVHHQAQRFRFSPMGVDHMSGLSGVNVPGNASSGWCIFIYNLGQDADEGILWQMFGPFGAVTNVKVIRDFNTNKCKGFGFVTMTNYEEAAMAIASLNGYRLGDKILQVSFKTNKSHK

biological target: HuR (ELAVL1) - TNFalpha ARE RNA complex (UniProt Q15717); assay: AlphaScreen HuR-RNA complex signal Z-score relative to positive controls (secondary screen) (Z-score (SD units of positive control)); higher = more complex signal; details: screen stage: secondary re-screen

Compound	AlphaScreen HuR-RNA complex signal Z-score
CCn1cc(C(=O)O)c(=O)c2cnc(N3CCCC3)nc21	0.164
COc1ccc(C(Cl)=C(c2ccc(OC)cc2)c2ccc(OC)cc2)cc1	1.04
CC1=C(C(=O)O)N2C(=O)[C@@H](NC(=O)[C@H](N)C3=CCC=CC3)[C@H]2SC1	-0.306
COC(=O)[C@H](OC(C)=O)[C@H]1C(C)(C)[C@H](OC(C)=O)[C@@H]2CC3=C4CC(=O)O[C@@H](c5ccoc5)[C@]4(C)CC[C@@H]3[C@@]1(C)C2=O	-0.463
CC(=O)O[C@]1(C(C)=O)CC[C@H]2[C@@H]3C=C(Cl)C4=CC(=O)[C@@H]5C[C@@H]5[C@]4(C)[C@H]3CC[C@@]21C	0.434
COC(=O)C[C@H]1C(C)(C)C(=O)[C@@H]2CC3=C(CC[C@]4(C)C3=CC(=O)O[C@H]4c3ccoc3)[C@@]1(C)C2=O	-0.213
Oc1c(I)cc(I)c2cccnc12	1.22
COc1cccc2c1C(=O)c1c(O)c3c(c(O)c1C2=O)C[C@@](O)(C(C)=O)C[C@@H]3O[C@H]1C[C@H](N)[C@H](O)[C@H](C)O1	1.02
Oc1ccc(O)cc1	-6.13
CC(=O)OCC1=C(C(=O)O)N2C(=O)[C@@H](NC(=O)CSc3ccncc3)[C@H]2SC1	0.134
C[C@H](N)[C@H](O)c1cccc(O)c1	2.26
CC(C)CCC[C@@H](C)[C@H]1CC[C@H]2[C@@H]3C(=O)C=C4C[C@@H](O)CC[C@]4(C)[C@H]3CC[C@]12C	1.04
Nc1ccc(S(=O)(=O)Nc2nccs2)cc1	1.61
CCOc1nc2cccc(C(=O)OC(C)OC(=O)OC3CCCCC3)c2n1Cc1ccc(-c2ccccc2-c2nn[nH]n2)cc1 (configuration not stated)	1.74
CCCc1nc(C(C)(C)O)c(C(=O)OCc2oc(=O)oc2C)n1Cc1ccc(-c2ccccc2-c2nnn[nH]2)cc1	2.11
Nc1nc2[nH]cnc2c(=S)[nH]1	2.26
NNCCc1ccccc1	1.3
CCn1cc(C(=O)O)c(=O)c2cc(F)c(N3CCN(C)CC3)cc21	-0.244
Cc1cc(C(C)(C)C)cc(C)c1CC1=NCCN1	1.51

Another view of 2 compounds above.

| Compound | AlphaScreen HuR-RNA complex signal Z-score |
| --- | --- |
| CC(=O)OCC1=C(C(=O)O)N2C(=O)[C@@H](NC(=O)CSc3ccncc3)[C@H]2SC1 | 0.134 |
| C[C@H](N)[C@H](O)c1cccc(O)c1 | 2.26 |

Carrying on:

Compound	AlphaScreen HuR-RNA complex signal Z-score
C[C@H]1O[C@H](O[C@H]2[C@H](O)[C@@H](O)[C@@H](O[C@H]3[C@H](O)[C@@H](O)C(O)O[C@@H]3CO)O[C@@H]2CO)[C@H](O)[C@@H](O)[C@@H]1N[C@H]1C=C(CO)[C@@H](O)[C@H](O)[C@H]1O (some centres not stated)	1.51
O=C(N[C@H](CO)[C@H](O)c1ccc([N+](=O)[O-])cc1)C(Cl)Cl	0.766
N[C@@H]1CONC1=O	0.704
Cc1nnc(SCC2=C(C(=O)O)N3C(=O)[C@@H](NC(=O)Cn4cnnn4)[C@H]3SC2)s1	0.644
COc1c2ccoc2cc2oc(C)cc(=O)c12	0.668
COc1ccc(-c2cc(C(F)F)nn2-c2ccc(S(N)(=O)=O)cc2)cc1F	0.401
CN(C)CCCN1c2ccccc2CCc2ccccc21	0.979
NS(=O)(=O)c1cc(C2(O)NC(=O)c3ccccc32)ccc1Cl (configuration not stated)	0.301
CN(C)CCc1c[nH]c2ccc(Cn3cncn3)cc12	2.42
CN[C@@H]1[C@H](O[C@H]2[C@H](O[C@H]3[C@H](O)[C@@H](O)[C@H](NC(=N)N)[C@@H](O)[C@@H]3NC(=N)N)O[C@@H](C)[C@]2(O)CO)O[C@@H](CO)[C@H](O)[C@H]1O	0.331
NS(=O)(=O)c1cc2c(cc1Cl)NCNS2(=O)=O	0.985
COc1ccc2cc1Oc1ccc(cc1)C[C@H]1c3cc(c(OC)cc3CCN1C)Oc1c(OC)c(OC)cc3c1[C@H](C2)N(C)CC3	-1.49
CC(C)[N+]1(C)[C@@H]2CC[C@H]1C[C@@H](OC(=O)C(CO)c1ccccc1)C2 (some centres not stated)	0.674
CO[C@@H]1[C@@H](OC(N)=O)[C@@H](O)[C@H](Oc2ccc3c(O)c(NC(=O)c4ccc(O)c(CC=C(C)C)c4)c(=O)oc3c2C)OC1(C)C	1.59
CN(C)[C@@H]1C(O)=C(C(N)=O)C(=O)[C@@]2(O)C(O)=C3C(=O)c4c(O)ccc(Cl)c4[C@@H](O)[C@H]3C[C@@H]12	1.46
Nc1c2ccccc2nc2ccccc12	1.22
CN(C)CCOC(=O)C(c1ccccc1)C1(O)CCCC1 (configuration not stated)	-0.171
N=C(NCCCCCCNC(=N)NC(=N)Nc1ccc(Cl)cc1)NC(=N)Nc1ccc(Cl)cc1	0.799
